Experimental data published in publication doi:10.1101/2025.01.08.631933.
Results are given in words; binding and its absence hold for the method and conditions named. In cells and extracts the contact can be indirect. Some results given as binding are weak or reduced against the parent protein; the word gives no strength.

Chains of the proteins cited; added tags and fusions are not shown.
UniProt O95373: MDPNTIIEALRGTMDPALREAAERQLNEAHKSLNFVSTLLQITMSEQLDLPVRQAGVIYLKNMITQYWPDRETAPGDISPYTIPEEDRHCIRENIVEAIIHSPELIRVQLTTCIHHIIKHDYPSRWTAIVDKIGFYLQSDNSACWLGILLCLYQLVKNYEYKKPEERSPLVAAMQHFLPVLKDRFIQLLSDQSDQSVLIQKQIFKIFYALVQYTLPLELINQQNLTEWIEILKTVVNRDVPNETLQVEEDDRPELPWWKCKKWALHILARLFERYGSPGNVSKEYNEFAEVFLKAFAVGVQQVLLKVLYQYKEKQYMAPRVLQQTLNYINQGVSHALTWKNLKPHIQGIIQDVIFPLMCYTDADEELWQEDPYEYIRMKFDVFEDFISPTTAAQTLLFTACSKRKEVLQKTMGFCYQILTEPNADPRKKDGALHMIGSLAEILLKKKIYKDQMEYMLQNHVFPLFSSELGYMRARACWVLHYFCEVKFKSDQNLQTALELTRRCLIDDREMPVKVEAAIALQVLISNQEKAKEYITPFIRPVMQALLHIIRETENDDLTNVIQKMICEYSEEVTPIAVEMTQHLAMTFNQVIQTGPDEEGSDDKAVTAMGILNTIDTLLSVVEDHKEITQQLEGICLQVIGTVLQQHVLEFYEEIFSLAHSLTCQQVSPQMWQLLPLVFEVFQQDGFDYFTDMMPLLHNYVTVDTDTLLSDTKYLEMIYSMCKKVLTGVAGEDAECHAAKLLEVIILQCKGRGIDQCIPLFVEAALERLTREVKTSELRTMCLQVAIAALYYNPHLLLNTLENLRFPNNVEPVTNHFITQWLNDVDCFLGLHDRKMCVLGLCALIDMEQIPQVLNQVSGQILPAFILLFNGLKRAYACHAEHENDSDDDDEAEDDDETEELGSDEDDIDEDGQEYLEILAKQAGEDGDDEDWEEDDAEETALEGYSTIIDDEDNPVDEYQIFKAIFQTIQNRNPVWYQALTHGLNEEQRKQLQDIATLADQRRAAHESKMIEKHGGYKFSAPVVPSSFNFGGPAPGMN
UniProt P03107: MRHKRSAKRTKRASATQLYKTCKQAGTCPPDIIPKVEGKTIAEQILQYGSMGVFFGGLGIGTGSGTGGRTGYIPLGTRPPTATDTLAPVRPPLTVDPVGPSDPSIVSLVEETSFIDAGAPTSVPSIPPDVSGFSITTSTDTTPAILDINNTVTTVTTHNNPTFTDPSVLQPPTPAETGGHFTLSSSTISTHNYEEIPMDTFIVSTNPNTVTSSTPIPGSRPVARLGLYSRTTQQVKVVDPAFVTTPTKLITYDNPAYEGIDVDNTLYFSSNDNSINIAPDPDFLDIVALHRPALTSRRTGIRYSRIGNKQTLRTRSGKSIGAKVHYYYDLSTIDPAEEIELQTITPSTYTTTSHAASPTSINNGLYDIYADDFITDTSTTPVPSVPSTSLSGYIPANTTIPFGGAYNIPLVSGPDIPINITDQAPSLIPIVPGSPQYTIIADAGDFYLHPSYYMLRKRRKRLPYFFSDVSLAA

What was measured:
[1] = target: importin-7 (human (endogenous in HeLa)) (UniProt O95373); experiment: proximity ligation
[2] = target: importin-7 (human (endogenous in HeLa)) (UniProt O95373); experiment: co-IP
[3] = target: importin-7 (human (endogenous in HeLa)) (UniProt O95373); experiment: co-IP; remark: listed apart in the source

For “3xFLAG-tagged HPV16 L2 (from UniProt P03107 1-473)”, the binding [1] was “binds”, the binding [2] was “binds” and the binding [3] was “no binding (condition: at 8 and 16 hpi)”.
